Measurements reported in PMC8939493.
No constants are given. Whether binding was seen depends on the method and setting. Binding seen in cells or lysates may run through a third protein. Some entries that bind do so weakly or less than the wild type.

Amino acid sequences for entries named in this document (tags omitted).
UniProt P42224: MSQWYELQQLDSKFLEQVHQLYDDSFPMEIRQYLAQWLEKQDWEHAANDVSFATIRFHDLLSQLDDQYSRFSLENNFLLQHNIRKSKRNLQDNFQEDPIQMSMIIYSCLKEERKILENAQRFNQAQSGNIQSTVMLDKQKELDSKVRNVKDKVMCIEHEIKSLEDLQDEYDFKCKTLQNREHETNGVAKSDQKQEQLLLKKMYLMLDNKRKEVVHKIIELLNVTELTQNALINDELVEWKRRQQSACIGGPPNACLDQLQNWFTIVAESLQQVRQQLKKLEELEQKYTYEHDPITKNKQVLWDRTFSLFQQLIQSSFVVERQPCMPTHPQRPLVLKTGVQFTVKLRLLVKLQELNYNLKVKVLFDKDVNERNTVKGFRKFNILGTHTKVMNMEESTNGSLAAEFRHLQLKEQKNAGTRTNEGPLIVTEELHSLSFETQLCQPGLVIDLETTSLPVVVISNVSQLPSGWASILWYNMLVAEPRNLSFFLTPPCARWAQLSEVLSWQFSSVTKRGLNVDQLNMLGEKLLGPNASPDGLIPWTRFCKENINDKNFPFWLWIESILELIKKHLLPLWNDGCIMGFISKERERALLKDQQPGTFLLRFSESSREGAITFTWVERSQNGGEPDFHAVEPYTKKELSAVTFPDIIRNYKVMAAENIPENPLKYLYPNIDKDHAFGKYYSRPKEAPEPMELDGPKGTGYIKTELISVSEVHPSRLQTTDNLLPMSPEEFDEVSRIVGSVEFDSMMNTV

Target: STAT1 (UniProt P42224)
Assay: co-IP

SARS-CoV-2 NSP13 helicase, V5-tagged (from UniProt P0DTD1 5325-5925) (enzyme)
binding: binds
